Source: paper PMC12040169 (PLOS Biology, 2025)
This is one part of the list.

Test system: T1, CTL2-GFP (C. trachomatis L2/434/Bu, GFP-expressing)
T1 construct: L2/434/Bu, GFP-expressing
Parameters: species or system HeLa; Intracellular C. trachomatis growth in HeLa cells, bulk GFP fluorescence relative to DMSO
Conditions: bulk GFP, single well; 28.5 h, 10 µM; inhibitor

Point of comparison: `CCC1c2cccn2CCN1C(=O)c1cc(-c2ccccn2)n[nH]1` (stereo not shown) [CBK283224], “% of control remaining” value 116.945%. Against it:
- CSc1ccc(CN2CCN(S(=O)(=O)Cc3ccccc3)CC2)cc1 [CBK264301G] — lower, 110.48%
- CC(=O)Nc1ccc(SC(C)c2nsc(NS(=O)(=O)c3ccc(-c4ccccc4)cc3)n2)cc1 (stereo not shown) [CBK047508] — higher, 140.956%
- O=C(Nc1cccc(Cl)c1)N[C@H]1C[C@H]2C(=O)NC[C@@H](CCC(=O)N3CCCC3)N2C1 [CBK289003] — higher, 145.337%
- CC(C)(C)c1cc2cc(NC(=O)C3CC3)ccc2[nH]1 [CBK019994] — lower, 97.6928%
- Cc1cc(NC(=O)c2ccc3c(c2)OCCO3)c2ccccc2n1 [CBK122739] — lower, 86.3992%
- CNc1nc2c(ncn2C2CC(O)C(CO)O2)c(=O)[nH]1 (stereo not shown) [CBK201312] — higher, 163.891%
- CC(Oc1ccccc1Br)c1nc(-c2nonc2N)no1 (stereo not shown) [CBK026982] — lower, 96.3861%
- CC1(C)CCCN(Cc2nnnn2-c2ccc(S(C)(=O)=O)cc2)CC1 [CBK306177] — higher, 141.551%
- O=c1[nH]c2ncc(-c3ccoc3)nc2n1Cc1ccco1 [CBK064639] — higher, 182.96%
- Cc1nc(C2CCCN(C(=O)c3ccnn3C)C2)c2sccn12 (stereo not shown) [CBK285235] — higher, 132.445%
- N#Cc1sc(NC(=O)c2cccc(Br)c2)nc1Cl [CBK017468] — lower, 31.8167%
- COc1ccc(Cn2nc3nnc(-c4ccccc4)c(-c4ccccc4)n3c2=O)cc1 [CBK286180] — lower, 104.979%
- CC(=O)Nc1ccc(Nc2ccc([N+](=O)[O-])cc2[N+](=O)[O-])cc1 [CBK260886] — lower, 114.708%
- Cc1nc2nc(-c3ccc(Cl)s3)cn2nc1C [CBK284565] — lower, 84.836%
- COCCC(=O)NC(Cc1ccsc1)c1nc(C)c(C)s1 (stereo not shown) [CBK284774] — higher, 184.32%
- CN(C)CCN(C)c1nc(-c2ccc(C(=O)O)cc2)cn2ccnc12 [CBK037880] — higher, 164.533%
- O=C(CCn1cncn1)N[C@H]1C2CCCCC2[C@@H]1c1ccccc1 (stereo partly shown) [CBK282970] — higher, 129.221%
- Cc1cc(C2CCCN(C(=O)CC3OCCc4sccc43)C2)n[nH]1 (stereo not shown) [CBK305241] — lower, 109.055%
- CC(C)CC1C(=O)NCCN1Cc1ccccc1 (stereo not shown) [CBK005336] — lower, 98.352%
- COCc1nnc(S)n1-c1cccc(OC)c1 [CBK288424] — higher, 134.459%
- COc1ccc(NC(=O)c2ccc(N(C)Cc3ccccc3)c([N+](=O)[O-])c2)cc1 [CBK268094] — lower, 100.341%
- CCc1nc2ccc(C(=O)Nc3cccc(NS(C)(=O)=O)c3)cn2c1N(C)CCCc1ccccc1 [CBK146670] — lower, 96.1659%
- Brc1ccc(C2(c3nnc(C4CCCO4)o3)CCOCC2)cc1 (stereo not shown) [CBK306258] — lower, 112.535%
- CCN(CC)S(=O)(=O)c1ccc(Nc2nc3ccc(Cl)cc3n3cnnc23)cc1 [CBK268259] — higher, 132.994%
- CC1(C)CC(=O)C2=C(C1)c1c(ccc3ccccc13)NC2c1ccc(N2CCC(Cc3ccccc3)CC2)c([N+](=O)[O-])c1 (stereo not shown) [CBK262944] — higher, 128.891%
- O=C(C1CC1)N1CCC2(CC1)Nc1cccnc1-n1cccc12 [CBK284504] — lower, 67.7492%
- CCOCc1nc2c(c(NCCn3cccn3)n1)CCN(C(C)=O)CC2 [CBK307707] — higher, 130.305%
- CC1CN(Cc2c(C(C)C)[nH]c3ncccc23)CC(C)O1 (stereo not shown) [CBK282900] — lower, 105.216%
- O=C(c1ccc(F)cc1)[C@H]1CCCN(C(=O)c2ccco2)C1 [CBK284328] — lower, 100.225%
- Cc1c(C)n(C)c2ccc(C(=O)NCCC(=O)N3CCOCC3)cc12 [CBK281669] — lower, 112.563%
- NS(=O)(=O)c1ccc(CCNS(=O)(=O)c2ccccc2[N+](=O)[O-])cc1 [CBK264369] — lower, 115.706%
- CC(C)Nc1cncc(Sc2cccc(N)c2)n1 [CBK091434] — lower, 113.545%
- COc1ccc(CCN2CCCCC2Cn2cncn2)cc1 (stereo not shown) [CBK305095] — higher, 126.862%
- COc1ccn2c(CCCN(C)C3Cc4ccccc4C3)nc(-c3ccc4c(c3)OCO4)c2c1 [CBK036303] — higher, 186.491%
- Cc1cccnc1NC(=O)C(C)n1cc([N+](=O)[O-])cn1 (stereo not shown) [CBK268918] — lower, 103.12%
- O=C(NCC1COc2ccccc2O1)N1CCN(c2ccc(F)cc2)CC1 (stereo not shown) [CBK156387] — higher, 124.564%
- COC(=O)c1ccc2oc(-c3cc(C(O)CNC(C)(C)C)ccc3OC(C)C)cc(=O)c2c1 (stereo not shown) [CBK009944C] — lower, 98.3031%
- COc1cncc(-c2cncc(Nc3ccccc3)n2)c1 [CBK065435] — lower, 95.4773%
- Cn1nc2n(C)c(=O)c3ccc(C(=O)NC4CCCC4)cc3n2c1=O [CBK287811] — lower, 86.918%
- CC1CC1c1nnc(C2(c3ccc(Br)cc3)CCOCC2)o1 (stereo not shown) [CBK304712] — higher, 135.756%
- COc1ccc(F)cc1-c1ccc(CC2(C(=O)NCc3cccs3)CCOCC2)cc1 [CBK285540] — lower, 81.981%
- Nc1ncc(-c2ccc(C(F)(F)F)cc2)c(C2CCCN(C(=O)C3CCCCC3)C2)n1 (stereo not shown) [CBK285791] — higher, 126.564%
- O=C(NNC(=O)C1CCN(S(=O)(=O)c2ccc(Br)cc2)CC1)NC12CC3CC(CC(C3)C1)C2 [CBK266907] — higher, 168.475%
- O=C(Nc1c(F)cccc1F)N(Cc1ccc2ccccc2c1)CC1CCNCC1 [CBK119480] — higher, 126.018%
- COc1ccc([C@@]23CC[C@@H](Nc4nc(-c5ccc(Br)cc5)cs4)C[C@@H]2N(C)CC3)cc1OC [CBK036543] — lower, 36.9293%
- CC(CN1CCCC1)NC(=O)c1ccc2c(c1)ncn2C (stereo not shown) [CBK281715] — lower, 98.8485%
- C[C@@H]1[C@H](c2ccccc2)OC(=O)N1C1CCN(S(=O)(=O)c2cccs2)CC1 [CBK043302] — lower, 101.135%
- CNC(=O)c1cc(S(=O)(=O)N(C2CC2)C2CCc3ccccc32)cn1C (stereo not shown) [CBK305988] — lower, 104.073%
